These results are taken from article PMC7063070.

These are yes or no findings as the source states them, for the method shown. In cells and extracts the contact can be indirect. Binding calls can cover weak binding; strength is not graded here.

The target in this test is integrin αVβ5 (human (endogenous in MDA-MB-435S)). Briefly: isolation of cross-linked integrin adhesion complexes with western blot; integrin adhesion complexes isolated as for MS (DTBP cross-linking, removal of cell bodies), blotted; MDA-MB-435S compared with the integrin αV knock-down clones 2αV and 3αV; no bait. Background: A western blot detects proteins with antibodies after separation by electrophoresis.

B1: KN motif and ankyrin repeat domain-containing protein 2 (KANK2) (protein, UniProt Q63ZY3 1-851)
chain: MAQVLHVPAPFPGTPGPASPPAFPAKDPDPPYSVETPYGYRLDLDFLKYVDDIEKGHTLRRVAVQRRPRLSSLPRGPGSWWTSTESLCSNASGDSRHSAYSYCGRGFYPQYGALETRGGFNPRVERTLLDARRRLEDQAATPTGLGSLTPSAAGSTASLVGVGLPPPTPRSSGLSTPVPPSAGHLAHVREQMAGALRKLRQLEEQVKLIPVLQVKLSVLQEEKRQLTVQLKSQKFLGHPTAGRGRSELCLDLPDPPEDPVALETRSVGTWVRERDLGMPDGEAALAAKVAVLETQLKKALQELQAAQARQADPQPQAWPPPDSPVRVDTVRVVEGPREVEVVASTAAGAPAQRAQSLEPYGTGLRALAMPGRPESPPVFRSQEVVETMCPVPAAATSNVHMVKKISITERSCDGAAGLPEVPAESSSSPPGSEVASLTQPEKSTGRVPTQEPTHREPTRQAASQESEEAGGTGGPPAGVRSIMKRKEEVADPTAHRRSLQFVGVNGGYESSSEDSSTAENISDNDSTENEAPEPRERVPSVAEAPQLRPAGTAAAKTSRQECQLSRESQHIPTAEGASGSNTEEEIRMELSPDLISACLALEKYLDNPNALTERELKVAYTTVLQEWLRLACRSDAHPELVRRHLVTFRAMSARLLDYVVNIADSNGNTALHYSVSHANFPVVQQLLDSGVCKVDKQNRAGYSPIMLTALATLKTQDDIETVLQLFRLGNINAKASQAGQTALMLAVSHGRVDVVKALLACEADVNVQDDDGSTALMCACEHGHKEIAGLLLAVPSCDISLTDRDGSTALMVALDAGQSEIASMLYSRMNIKCSFAPMSDDESPTSSSAEE
With B1, the binding result is reported as “binds”.
